# According to the supplement of paper PMC8728848:
# The list shows a part of the results.
# B1: FBG2 (Homo sapiens), Q9NRD1 (protein)
# chain: MDAPHSKAALDSINELPENILLELFTHVPARQLLLNCRLVCSLWRDLIDLMTLWKRKCLREGFITKDWDQPVADWKIFYFLRSLHRNLLRNPCAEEDMFAWQIDFNGGDRWKVESLPGAHGTDFPDPKVKKYFVTSYEMCLKSQLVDLVAEGYWEELLDTFRPDIVVKDWFAARADCGCTYQLKVQLASADYFVLASFEPPPVTIQQWNNATWTEVSYTFSDYPRGVRYILFQHGGRDTQYWAGWYGPRVTNSSIVVSPKMTRNQASSEAQPGQKHGQEEAAQSPYRAVVQIFPPPVTIQQWNNATWTEVSYTFSDYPRGVRYILFQHGGRDTQYWAGWYGPRVTNSSIVVSPKMTRNQASSEAQPGQKHGQEEAAQSPYRAVVQI
# Legend:
# Assay in all cases: glycan array binding signal (z-score within array); higher = stronger binding
# Details in all cases: glycan notation: IUPAC condensed, linker removed
# Fuc(b1-3)GlcNAc = molecular target: Fuc(b1-3)GlcNAc
# Method in brief: (§1)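 The Consortium for Functional Glycomics database supplied 3228 glycan arrays, of which those lacking an available protein sequence were dropped. The binding signal, a within-array Z-score, was averaged across arrays of the same protein sequence and across linkers. Negative scores can be read as non-binding.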
# Gal(a1-2)Gal = molecular target: Gal(a1-2)Gal
# Method in brief: as §1
# Gal(a1-3)Gal = molecular target: Gal(a1-3)Gal
# Method in brief: as §1
# Gal(a1-3)Gal(b1-3)Glc = molecular target: Gal(a1-3)Gal(b1-3)Glc
# Method in brief: as §1
# Gal(a1-3)Gal(b1-3)GlcNAc = molecular target: Gal(a1-3)Gal(b1-3)GlcNAc
# Method in brief: as §1
# Gal(a1-3)Gal(b1-4)GlcNAc = molecular target: Gal(a1-3)Gal(b1-4)GlcNAc
# Method in brief: as §1
# [1] = molecular target: Gal(a1-3)Gal(b1-4)[Fuc(a1-3)]GalNAc
# Method in brief: as §1
# Gal(a1-3)GlcNAc = molecular target: Gal(a1-3)GlcNAc
# Method in brief: as §1
# [2] = molecular target: Gal(a1-3)[Gal(a1-4)]Gal(b1-4)GlcNAc
# Method in brief: as §1
# Gal(a1-4)Gal(b1-4)Gal = molecular target: Gal(a1-4)Gal(b1-4)Gal
# Method in brief: as §1
# Gal(a1-4)Gal(b1-4)GalNAc = molecular target: Gal(a1-4)Gal(b1-4)GalNAc
# Method in brief: as §1
# Gal(a1-4)GlcNAc = molecular target: Gal(a1-4)GlcNAc
# Method in brief: as §1
# Gal(a1-6)Glc = molecular target: Gal(a1-6)Glc
# Method in brief: as §1
# Gal(b1-2)Gal = molecular target: Gal(b1-2)Gal
# Method in brief: as §1
# Gal(b1-3)Gal = molecular target: Gal(b1-3)Gal
# Method in brief: as §1
# Gal(b1-3)GalNAc = molecular target: Gal(b1-3)GalNAc
# Method in brief: as §1
# [3] = molecular target: Gal(b1-3)GalNAc(b1-3)Gal(a1-4)Gal(b1-4)Glc
# Method in brief: as §1
# [4] = molecular target: Gal(b1-3)GalNAc(b1-3)Gal(b1-4)Glc
# Method in brief: as §1
# [5] = molecular target: Gal(b1-3)GalNAc(b1-3)Gal(b1-4)GlcNAc
# Method in brief: as §1
# [6] = molecular target: Gal(b1-3)GalNAc(b1-4)Gal(b1-4)Glc
# Method in brief: as §1
# [7] = molecular target: Gal(b1-3)GalNAc(b1-4)[Neu5Ac(a2-3)]Gal(b1-4)Glc
# Method in brief: as §1
# [8] = molecular target: Gal(b1-3)GlcNAc(b1-3)Gal(b1-3)GlcNAc
# Method in brief: as §1
# [9] = molecular target: Gal(b1-3)[Fuc(a1-4)]GlcNAc
# Method in brief: as §1
# [10] = molecular target: Gal(b1-3)[Fuc(a1-4)]GlcNAc(b1-3)Gal(b1-3)[Fuc(a1-4)]GlcNAc
# Method in brief: as §1
# [11] = molecular target: Gal(b1-3)[Fuc(a1-4)]GlcNAc(b1-3)Gal(b1-4)GlcNAc
# Method in brief: as §1
# [12] = molecular target: Gal(b1-3)[Fuc(a1-4)]GlcNAc(b1-3)Gal(b1-4)[Fuc(a1-3)]GlcNAc
# Method in brief: as §1
# [13] = molecular target: Gal(b1-3)[GlcNAc(b1-6)]GalNAc
# Method in brief: as §1
# [14] = molecular target: Gal(b1-3)[GlcNAc(b1-6)]GlcNAc
# Method in brief: as §1
# [15] = molecular target: Gal(b1-3)[Neu5Ac(a2-6)]GalNAc
# Method in brief: as §1
# [16] = molecular target: Gal(b1-3)[Neu5Ac(a2-6)]GlcNAc
# Method in brief: as §1
# [17] = molecular target: Gal(b1-3)[Neu5Ac(a2-6)]GlcNAc(a1-4)Gal(b1-4)Glc
# Method in brief: as §1
# [18] = molecular target: Gal(b1-3)[Neu5Ac(b2-6)]GlcNAc
# Method in brief: as §1
# [19] = molecular target: Gal(b1-4)GalNAc(a1-3)[Fuc(a1-2)]Gal(b1-4)GlcNAc
# Method in brief: as §1
# [20] = molecular target: Gal(b1-4)GalNAc(b1-3)[Fuc(a1-2)]Gal(b1-4)GlcNAc
# Method in brief: as §1
# Gal(b1-4)Glc = molecular target: Gal(b1-4)Glc
# Method in brief: as §1
# Gal(b1-4)Glc6S = molecular target: Gal(b1-4)Glc6S
# Method in brief: as §1
# Gal(b1-4)GlcNAc = molecular target: Gal(b1-4)GlcNAc
# Method in brief: as §1
# [21] = molecular target: Gal(b1-4)GlcNAc(b1-2)Man(a1-3)[Gal(b1-4)GlcNAc(b1-2)Man(a1-6)]Man(b1-4)GlcNAc(b1-4)GlcNAc
# Method in brief: as §1
# [22] = molecular target: Gal(b1-4)GlcNAc(b1-3)Gal(b1-3)GlcNAc
# Method in brief: as §1
# [23] = molecular target: Gal(b1-4)GlcNAc(b1-3)Gal(b1-4)Glc
# Method in brief: as §1
# [24] = molecular target: Gal(b1-4)GlcNAc(b1-3)Gal(b1-4)GlcNAc
# Method in brief: as §1
# [25] = molecular target: Gal(b1-4)GlcNAc(b1-3)Gal(b1-4)GlcNAc(b1-3)Gal(b1-4)GlcNAc
# Method in brief: as §1
# [26] = molecular target: Gal(b1-4)GlcNAc(b1-3)Gal(b1-4)[Fuc(a1-3)]GlcNAc(b1-3)Gal(b1-4)[Fuc(a1-3)]GlcNAc
# Method in brief: as §1
# [27] = molecular target: Gal(b1-4)GlcNAc(b1-3)GalNAc
# Method in brief: as §1
# [28] = molecular target: Gal(b1-4)GlcNAc(b1-3)[Gal(b1-4)GlcNAc(b1-6)]GalNAc
# Method in brief: as §1
binder,measurement,setting,value
B1,glycan array binding signal (z-score),Fuc(b1-3)GlcNAc,-0.191
same,glycan array binding signal (z-score),Gal(a1-2)Gal,-0.526
same,glycan array binding signal (z-score),Gal(a1-3)Gal,-0.626
same,glycan array binding signal (z-score),Gal(a1-3)Gal(b1-3)Glc,-0.293
same,glycan array binding signal (z-score),Gal(a1-3)Gal(b1-3)GlcNAc,-0.487
same,glycan array binding signal (z-score),Gal(a1-3)Gal(b1-4)GlcNAc,0.097
same,glycan array binding signal (z-score),[1],0.215
same,glycan array binding signal (z-score),Gal(a1-3)GlcNAc,-0.826
same,glycan array binding signal (z-score),[2],0.314
same,glycan array binding signal (z-score),Gal(a1-4)Gal(b1-4)Gal,0.4
same,glycan array binding signal (z-score),Gal(a1-4)Gal(b1-4)GalNAc,-0.576
same,glycan array binding signal (z-score),Gal(a1-4)GlcNAc,-0.876
same,glycan array binding signal (z-score),Gal(a1-6)Glc,1.57
same,glycan array binding signal (z-score),Gal(b1-2)Gal,-0.363
same,glycan array binding signal (z-score),Gal(b1-3)Gal,-0.597
same,glycan array binding signal (z-score),Gal(b1-3)GalNAc,-0.527
same,glycan array binding signal (z-score),[3],0.174
same,glycan array binding signal (z-score),[4],-0.208
same,glycan array binding signal (z-score),[5],-0.137
same,glycan array binding signal (z-score),[6],-0.441
same,glycan array binding signal (z-score),[7],-0.243
same,glycan array binding signal (z-score),[8],-0.379
same,glycan array binding signal (z-score),[9],-0.568
same,glycan array binding signal (z-score),[10],-0.392
same,glycan array binding signal (z-score),[11],-0.352
same,glycan array binding signal (z-score),[12],-0.265
same,glycan array binding signal (z-score),[13],-0.712
same,glycan array binding signal (z-score),[14],-0.747
same,glycan array binding signal (z-score),[15],-0.611
same,glycan array binding signal (z-score),[16],-0.295
same,glycan array binding signal (z-score),[17],-0.281
same,glycan array binding signal (z-score),[18],0.699
same,glycan array binding signal (z-score),[19],-0.734
same,glycan array binding signal (z-score),[20],-0.077
same,glycan array binding signal (z-score),Gal(b1-4)Glc,-0.46
same,glycan array binding signal (z-score),Gal(b1-4)Glc6S,0.228
same,glycan array binding signal (z-score),Gal(b1-4)GlcNAc,-0.343
same,glycan array binding signal (z-score),[21],-0.069
same,glycan array binding signal (z-score),[22],-0.688
same,glycan array binding signal (z-score),[23],-0.397
same,glycan array binding signal (z-score),[24],-0.538
same,glycan array binding signal (z-score),[25],-0.014
same,glycan array binding signal (z-score),[26],-0.021
same,glycan array binding signal (z-score),[27],-0.278
same,glycan array binding signal (z-score),[28],-0.564

# Given as tab-separated lines: part of the list above
binder	measurement	setting	value
B1	glycan array binding signal (z-score)	Gal(a1-4)Gal(b1-4)Gal	0.4
same	glycan array binding signal (z-score)	[9]	-0.568
same	glycan array binding signal (z-score)	[21]	-0.069
